Reference: publication PMC10641312
These are yes or no findings as the source states them, for the method shown. In cells and extracts the contact can be indirect. Some results given as binding are weak or reduced against the parent protein; the word gives no strength.

The chains behind the UniProt entries cited, without tags or fusion partners.
UniProt P11802: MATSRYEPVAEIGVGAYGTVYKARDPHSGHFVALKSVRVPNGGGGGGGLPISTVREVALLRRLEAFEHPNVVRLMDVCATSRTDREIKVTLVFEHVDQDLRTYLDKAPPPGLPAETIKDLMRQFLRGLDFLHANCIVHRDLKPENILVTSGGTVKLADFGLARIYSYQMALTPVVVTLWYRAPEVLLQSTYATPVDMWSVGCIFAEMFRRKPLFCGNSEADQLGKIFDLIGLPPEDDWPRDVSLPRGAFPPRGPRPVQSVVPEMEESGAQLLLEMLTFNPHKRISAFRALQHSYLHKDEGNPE
UniProt P30281: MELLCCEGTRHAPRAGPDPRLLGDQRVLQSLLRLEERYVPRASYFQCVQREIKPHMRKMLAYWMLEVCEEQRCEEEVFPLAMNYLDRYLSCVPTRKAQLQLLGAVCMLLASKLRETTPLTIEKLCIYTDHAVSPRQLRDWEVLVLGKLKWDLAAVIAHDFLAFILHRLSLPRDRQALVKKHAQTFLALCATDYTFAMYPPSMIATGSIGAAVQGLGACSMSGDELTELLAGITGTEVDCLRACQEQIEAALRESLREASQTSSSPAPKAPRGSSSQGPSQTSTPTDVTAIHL

Molecular target: CDK4 (human (endogenous in CAL-62, HTC-C3, 8505C and C-643 cells)) (UniProt P11802)
Test: co-IP; immunoprecipitation with an anti-CDK4 antibody from cells treated for 6 d with vehicle, dabrafenib, trametinib or palbociclib alone or combined; immunodetection of co-precipitated proteins

binding: binds
Substance: Cyclin D3 (from UniProt P30281 1-292)
